Values from PubChem BioAssay AID1259405 (NCATS, 2018).
The whole screen tested about 50,000 reagents; this is a random part of them. Over the whole deposit, about 4,000 (8%) were called active. 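Mouse siRNA library applied to hamster cells; one well for each siRNA.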 A number with no mark means an inactive call.

- Aim: 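Silenced genes that increase secreted GFP made by CHO cells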 (primary screen)
- Cell system: Chinese hamster CHO-K1 ovary cells with stable secreted eGFP expression
- Knock-down reagent: single siRNA against mouse genes, 0.8 pmol siRNA per well (2 µl of 400 nM stock)
- Duration: 3 days
- Read-out: 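Percent of the per-plate non-targeting control median for intracellular GFP per well by laser scanning cytometry and for cell viability by ATP luminescence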
- Direction: GFP, % of control: higher = more GFP per well, higher productivity; viability (ATP), % of control: higher = more viable cells (more ATP)
- Call rule: 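Called active when intracellular GFP, relative to negative control, is at or above 120%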

| gene | PubChem SID | GFP, % of control | viability (ATP), % of control |
| --- | --- | --- | --- |
| Gpihbp1 | SID363562351 | 90.3 | 66.3 |
| Gpihbp1 | SID363567489 | 47 | 32.1 |
| Gpihbp1 | SID363584846 | 88.1 | 46.2 |
| Or2t48 | SID363554174 | 24.7 | 25.4 |
| Or2t48 | SID363567621 | 79.9 | 42.7 |
| Or2t48 | SID363584978 | 58.9 | 90.5 |
| Serpinb6b | SID363555430 | 69.7 | 80.1 |
| Serpinb6b | SID363564091 | 107 | 92 |
| Serpinb6b | SID363587637 | 106 | 97.1 |
| Chi3l1 | SID363569730 | 75.1 | 70.3 |
| Chi3l1 | SID363576770 | 65.9 | 61.9 |
| Chi3l1 | SID363578178 | 54.9 | 48.8 |
| Nrde2 | SID363546639 | 53.4 | 99.8 |
| Nrde2 | SID363548395 | 94.4 | 92.3 |
| Nrde2 | SID363560573 | 142 (active) | 74.2 |
| Efcab14 | SID363542344 | 75.3 | 70.7 |
| Efcab14 | SID363551835 | 63.6 | 70.7 |
| Efcab14 | SID363559440 | 94.6 | 84.4 |
| Kbtbd8 | SID363556457 | 83 | 73.4 |
| Kbtbd8 | SID363586907 | 82.3 | 118 |
| Kbtbd8 | SID363589015 | 99.7 | 113 |
| Amdhd2 | SID363584500 | 87.9 | 75.4 |
| Amdhd2 | SID363589530 | 111 | 136 |
| Cyb5a | SID363544787 | 19.8 | 12.9 |
| Cyb5a | SID363551115 | 52.7 | 79.5 |
| Cyb5a | SID363557664 | 49.9 | 51.9 |
| Copg2 | SID363547548 | 82.3 | 81.9 |
| Copg2 | SID363558317 | 90.1 | 82 |
| Copg2 | SID363560075 | 55.4 | 72.8 |
| Sike1 | SID363552181 | 71.3 | 63.1 |
| Sike1 | SID363585317 | 65.6 | 81.6 |
| Sike1 | SID363585668 | 132 (active) | 132 |
| Fcer2a | SID363568884 | 114 | 76.2 |
| Fcer2a | SID363576276 | 139 (active) | 81 |
| Fcer2a | SID363579092 | 118 | 97.7 |
| 4932415M13Rik | SID363547320 | 135 (active) | 72.9 |
| 4932415M13Rik | SID363558089 | 95.7 | 91.2 |
| 4932415M13Rik | SID363559847 | 71.9 | 70.6 |

Records above whose target name begins with F or f:
| gene | PubChem SID | GFP, % of control | viability (ATP), % of control |
| --- | --- | --- | --- |
| Fcer2a | SID363568884 | 114 | 76.2 |
| Fcer2a | SID363576276 | 139 (active) | 81 |
| Fcer2a | SID363579092 | 118 | 97.7 |

The list goes on:
| gene | PubChem SID | GFP, % of control | viability (ATP), % of control |
| --- | --- | --- | --- |
| C1s2 | SID363553587 | 85.9 | 69.1 |
| C1s2 | SID363561544 | 60.6 | 69 |
| C1s2 | SID363565282 | 65.1 | 74.2 |
| Cspg5 | SID363550011 | 79.2 | 59.8 |
| Cspg5 | SID363564520 | 118 | 74.2 |
| Cspg5 | SID363588065 | 68.4 | 88.6 |
| Kif15 | SID363581782 | 97.1 | 115 |
| Kif15 | SID363589276 | 86 | 79.6 |
| Dglucy | SID363552176 | 89.9 | 51.8 |
| Dglucy | SID363585312 | 77.9 | 78.7 |
| Dglucy | SID363585663 | 109 | 103 |
| Ints11 | SID363545530 | 77.9 | 78.9 |
| Ints11 | SID363549043 | 63.3 | 77.4 |
| Ints11 | SID363562849 | 54.1 | 73.4 |
| Gpr176 | SID363571092 | 61.6 | 58.1 |
| Gpr176 | SID363571444 | 100 | 75.4 |
| Gpr176 | SID363571796 | 56.8 | 68.5 |
| Ncoa5 | SID363562180 | 41.1 | 45.3 |
| Ncoa5 | SID363567318 | 40.7 | 28.8 |
| Ncoa5 | SID363584675 | 103 | 83.1 |
| Tulp4 | SID363556558 | 99.1 | 61.7 |
| Tulp4 | SID363563462 | 81.3 | 51.6 |
| Tulp4 | SID363587008 | 72.8 | 81.4 |
| Rps6ka4 | SID363547345 | 128 (active) | 103 |
| Rps6ka4 | SID363558114 | 121 (active) | 84.1 |
| Rps6ka4 | SID363559872 | 90.1 | 81.3 |
| Gna12 | SID363570054 | 43.1 | 72.3 |
| Gna12 | SID363576390 | 127 (active) | 91 |
| Gna12 | SID363579558 | 50.3 | 67 |
| Vdr | SID363571131 | 40.4 | 43.1 |
| Vdr | SID363571483 | 81.2 | 74.6 |
| Vdr | SID363571835 | 40.4 | 39.5 |
| Fam193b | SID363546874 | 37.8 | 23.3 |
| Fam193b | SID363549686 | 64 | 91.2 |
| Fam193b | SID363587740 | 112 | 121 |
| Ap4m1 | SID363546745 | 101 | 93.4 |
| Ap4m1 | SID363548501 | 87 | 81.6 |
| Ap4m1 | SID363560679 | 88 | 72.5 |
| Drgx | SID363555022 | 105 | 76.3 |
| Drgx | SID363568469 | 71.7 | 69.7 |
| Drgx | SID363586528 | 58 | 96.1 |
| Rab33b | SID363570028 | 45.6 | 48.7 |
| Rab33b | SID363576364 | 82.4 | 66.2 |
| Rab33b | SID363579532 | 81.6 | 76.2 |
| Sncg | SID363554862 | 30.6 | 64.9 |
| Sncg | SID363568309 | 65.7 | 83 |
| Sncg | SID363586368 | 45 | 41.1 |
| Aldoa | SID363556621 | 155 (active) | 52.5 |
| Aldoa | SID363563525 | 119 | 54.1 |
| Aldoa | SID363587071 | 87.3 | 87 |
| Crb1 | SID363544126 | 55 | 70.6 |
| Crb1 | SID363550454 | 62.4 | 79.8 |
| Crb1 | SID363557003 | 75.3 | 82.6 |
| Pcdhga12 | SID363541884 | 93.2 | 88.3 |
| Pcdhga12 | SID363553476 | 63.1 | 77.5 |
| Pcdhga12 | SID363566800 | 74.9 | 76.3 |
| Or1j21 | SID363554105 | 110 | 70.4 |
| Or1j21 | SID363567552 | 55.3 | 40.1 |
| Or1j21 | SID363584909 | 91.9 | 98.4 |
| Ythdf1 | SID363556788 | 47.7 | 57 |
| Ythdf1 | SID363563692 | 66.3 | 79.3 |
| Ythdf1 | SID363587238 | 60.6 | 103 |
| Tdp2 | SID363573072 | 83.8 | 91.1 |
| Tdp2 | SID363577648 | 49.6 | 62.9 |
| Tdp2 | SID363581168 | 78.7 | 82.4 |
| Tmco1 | SID363542322 | 76.6 | 78.5 |
| Tmco1 | SID363551813 | 77.8 | 44.8 |
| Tmco1 | SID363559418 | 50.3 | 51.8 |
| Zfp105 | SID363573804 | 62.7 | 39.4 |
| Zfp105 | SID363581548 | 67.2 | 93 |
| Zfp105 | SID363584012 | 67.5 | 60.8 |
